Patent publication US6737397B1, “Control of cancer growth through the interaction of [MET5]-enkephalin and the zeta receptor” (The Penn State Research Foundation, priority 1996, dated 2004)

Assay: Radioimmunoassay of [Met5]-enkephalin in tumors and plasma of HT-29 bearing nude mice given 0.1 mg/kg NTX
Format: in vivo

SMILES: O=C1CC[C@@]2(O)[C@H]3Cc4ccc(O)c5c4[C@@]2(CCN3CC2CC2)[C@H]1O5 [naltrexone]
- Plasma [Met^5]-enkephalin (pg/ml plasma) (0.1 mg/kg NTX): 100.0 ± 20.0 pg/ml plasma
- plasma [Met5]-enkephalin levels elevated from control values (0.1 mg/kg naltrexone): 2.5 fold
- [Met5]-enkephalin levels in tumor tissue increased from controls (0.1 mg/kg naltrexone, no statistical difference): 34%
- Tissue [Met^5]-enkephalin (pg/mg tissue) (tumor, 0.1 mg/kg NTX): 79.2 ± 5.2 pg/mg tissue
